US8580854B2, “Methods of suppression of rage gene expression and rage triggered inflammatory genes by selected age-inhibitors” (City of Hope, priority 2005, dated 2013)

Experiments:
STZ-diabetic rats = assay: Body weight, glycemic control and albuminuria in STZ-induced diabetic rats given LR-90 in drinking water for 32 weeks; assay type: in vivo, rat
Method: Animal studies were carried out in compliance with policies outlined in “The Guide for the care and Handling of Laboratory Animals” (NIH Publication No. 85-23), which have been approved by the City of Hope National Medical Center Animal Care Committee. Induction of diabetes by STZ and all other procedures were according to the previously published article on LR-90 (25), except that in the present study the diabetic rats under treatment were randomized in 5 groups of ten each: one diabetic control group (0 mg/L), one group receiving 2.5 mg/L, one group receiving 10 mg/L, a third group receiving 20 mg/L and a fourth group receiving 50 mg/L of LR-90 in drinking water (FIG. 1). Both plasma glucose and body weight were checked before administration of the drug, and no differences were detected among the two non-diabetic groups and five diabetic treatment groups. All animals were housed individually and were given free access to food (Purina rodent chow 5001, Ralston Purina, Richmond, Ind., USA) and water. Glycemic control and body weights were monitored periodically. In order to limit hyperglycemia and ensure that animals maintained body weight, diabetic animals received 3 IU of ultralente insulin (Humulin U, Eli Lilly, Indianapolis, Ind., USA) two to three times per week. The study was carried out over 32 weeks.
Blood (from the tail vein) and urine samples were collected from rats for glycemic control analysis and albuminuria measurements. Plasma glucose was measured using a glucose analyzer machine (YSI 2300 STAT, Yellowsprings, Ohio, USA). HbAlc concentration was measured by HPLC (BioRad DIAMAT, Hercules, Calif., USA). Total plasma triglycerides and cholesterol concentrations were quantified at the end of the study using the Vitros 250 Chemistry System (Johnson & Johnson, Rochester, N.Y., USA). Progression of renal dysfunction was assessed by measuring urinary albumin-to-creatinine ratio (ACR). Rats were housed in metabolic cages (Nalge, Rochester, N.Y., USA) for 24 hr and urine was collected in a collection beaker with several drops of toluene to inhibit microbial growth. Urinary albumin and creatinine concentrations were quantified immunologically using the Nephrat/Creatinine Companion kits (Exocell), and the ACR value was calculated for each rat.
At the end of study, the rats were weighed and anaesthetized with isofluorane and blood was drawn by heart puncture and transferred into heparinized and non-heparinized vacutainer tubes on ice. These blood samples were later centifuged for plasma and serum collection respectively, and stored at −70° C. until the time of analysis. Rats were killed by over-anesthetization and cardiac puncture and the kidneys were removed immediately, weighed, decapsulated and rinsed in PBS buffer. Sections of the kidneys were stored in 10% NBF for subsequent microscopic examinations and immunohistochemistry.
Statistical analyses were performed using Prism software (GraphPad, San Diego, Calif., USA). Unless otherwise indicated, data are presented as Means±Std. Group comparisons were analyzed using one-way ANOVA and subsequent post-hoc analysis by Tukey's test. A P value of less than 0.05 was considered statistically significant.

non-diabetic rats = assay: Non-diabetic control rats given LR-90 in drinking water for 32 weeks; assay type: in vivo, rat
Method: Animal studies were carried out in compliance with policies outlined in “The Guide for the care and Handling of Laboratory Animals” (NIH Publication No. 85-23), which have been approved by the City of Hope National Medical Center Animal Care Committee. Induction of diabetes by STZ and all other procedures were according to the previously published article on LR-90 (25), except that in the present study the diabetic rats under treatment were randomized in 5 groups of ten each: one diabetic control group (0 mg/L), one group receiving 2.5 mg/L, one group receiving 10 mg/L, a third group receiving 20 mg/L and a fourth group receiving 50 mg/L of LR-90 in drinking water (FIG. 1). Both plasma glucose and body weight were checked before administration of the drug, and no differences were detected among the two non-diabetic groups and five diabetic treatment groups. […] Glycemic control and body weights were monitored periodically. […]
Blood (from the tail vein) and urine samples were collected from rats for glycemic control analysis and albuminuria measurements. Plasma glucose was measured using a glucose analyzer machine (YSI 2300 STAT, Yellowsprings, Ohio, USA). HbAlc concentration was measured by HPLC (BioRad DIAMAT, Hercules, Calif., USA). […] Progression of renal dysfunction was assessed by measuring urinary albumin-to-creatinine ratio (ACR). […]

[1] = difference not statistically significant

Work on `CC(C)(Oc1ccc(NC(=O)Nc2ccc(Cc3ccc(NC(=O)Nc4ccc(OC(C)(C)C(=O)O)cc4)c(Cl)c3)cc2Cl)cc1)C(=O)O` [LR-90] yielded a Body wt. (STZ-diabetic rats; 2.5 mg per liter drinking water daily) of 305.8 ± 52.1 g, a Body wt. (STZ-diabetic rats; 10 mg per liter drinking water daily) of 306.8 ± 71.4 g and a Body wt. (STZ-diabetic rats; 25 mg per liter drinking water daily) of 312.0 ± 71.9 g. The Body wt. (STZ-diabetic rats; 50 mg per liter drinking water daily) was 326.4 ± 62.3 g, the “body weight compared with untreated counterparts” value (STZ-diabetic rats; [1]) was “slight increase in weight” and the Body wt. (non-diabetic rats; 50 mg per liter drinking water daily, 32 weeks) was 698.5 ± 93.4 g. For the same compound, the “body weight compared with untreated counterparts” value (non-diabetic rats; [1]) was “slight increase in weight”.
